For one substance, binding results are on record in PMC9039736.

These are yes or no findings as the source states them, for the method shown. Binding seen in cells or lysates may run through a third protein. Binding can be weak; no strength is given.

The target of this test is T1, SMYD3 (endogenous) (human (endogenous in HT-29, HGC-27, HLC-19, CAPAN-1)) (UniProt Q9H7B4).
T1 sequence: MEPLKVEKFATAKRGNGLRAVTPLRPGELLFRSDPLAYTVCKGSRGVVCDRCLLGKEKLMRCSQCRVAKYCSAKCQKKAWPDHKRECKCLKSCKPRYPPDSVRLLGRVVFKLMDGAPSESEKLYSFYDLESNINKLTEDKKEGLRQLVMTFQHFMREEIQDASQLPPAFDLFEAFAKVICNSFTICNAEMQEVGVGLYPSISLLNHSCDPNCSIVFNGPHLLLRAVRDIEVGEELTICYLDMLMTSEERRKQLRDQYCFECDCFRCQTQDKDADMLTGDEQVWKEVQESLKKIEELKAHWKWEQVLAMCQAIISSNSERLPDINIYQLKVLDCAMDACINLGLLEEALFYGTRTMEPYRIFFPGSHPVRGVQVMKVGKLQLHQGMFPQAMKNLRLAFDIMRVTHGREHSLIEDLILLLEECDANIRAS
Description: co-IP; endogenous proteins in whole-cell lysates (HT-29; for some pairs also HGC-27, HLC-19, CAPAN-1); IP with antibody to SMYD3 or to the partner on Dynabeads Protein A or G, immunoblot; lysis buffer 50 mM Tris-HCl pH 7.4, 5 mM EDTA, 250 mM NaCl, 1% Triton X-100; for phospho-MET cells serum-starved 24 h, then 10 ng/ml HGF for 2 h. (In general: In western blotting, separated proteins are transferred to a membrane and probed.)

Take “5'AMP-activated protein kinase (AMPK) (endogenous) (complex)”: the binding result is listed as “binds”.
